Laboratory results taken from patent publication US6586457B2, “Methods for inhibiting bone resorption” (Merck & Co., Inc., priority 1998, dated 2003).
At least one structure is not confirmed: it was looked up by name or label, or the drawing left a doubt.

Tested on: EP4 mRNA
Test: EP4 mRNA levels in RCT-1 cells (Northern blot)
Format: cell-based, rat

With `CC1=C(/C=C/C(C)=C/C=C/C(C)=C/C(=O)O)C(C)(C)CCC1` [retinoic acid] the “effect on levels of EP4 mRNA” value was “reduces the levels of EP4 mRNA”.
